Measured values from doi:10.1101/287649.
These are yes or no findings as the source states them, for the method shown. In cells and extracts the contact can be indirect. Some entries that bind do so weakly or less than the wild type. Tags and fused reporters may be left off the sequences shown.

Target: T1, Mcp1 (Schizosaccharomyces pombe) (UniProt O94452)
T1 sequence: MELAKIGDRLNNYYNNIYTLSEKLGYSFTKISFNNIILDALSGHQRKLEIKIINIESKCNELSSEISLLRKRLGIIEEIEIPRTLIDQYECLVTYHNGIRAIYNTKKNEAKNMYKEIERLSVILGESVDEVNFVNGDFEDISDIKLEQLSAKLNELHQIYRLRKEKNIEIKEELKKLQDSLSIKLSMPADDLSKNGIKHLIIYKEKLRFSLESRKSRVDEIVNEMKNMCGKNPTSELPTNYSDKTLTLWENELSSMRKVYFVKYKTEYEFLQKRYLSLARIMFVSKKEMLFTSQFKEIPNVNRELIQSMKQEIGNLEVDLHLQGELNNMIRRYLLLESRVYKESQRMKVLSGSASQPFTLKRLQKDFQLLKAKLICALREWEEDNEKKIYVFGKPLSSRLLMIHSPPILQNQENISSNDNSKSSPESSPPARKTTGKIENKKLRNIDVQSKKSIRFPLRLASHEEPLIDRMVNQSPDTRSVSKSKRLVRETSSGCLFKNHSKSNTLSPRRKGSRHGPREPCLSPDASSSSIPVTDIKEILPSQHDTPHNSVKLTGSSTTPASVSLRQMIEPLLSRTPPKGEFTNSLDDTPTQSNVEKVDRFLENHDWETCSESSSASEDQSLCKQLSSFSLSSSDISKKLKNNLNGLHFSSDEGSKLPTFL
Test: co-IP

B1: Klp5 (protein, UniProt O14343 1-883)
chain: MSRQSSITVTVRVRPFSTAESANLIASSDRLSFGTSSSLRNPGSGRQIRRVVKVLDGRVLVFDPPDETTATLSATNRRLSTSQQSLARLSRKSNNSAGFGRDLRYAFDRVFDETATQQQVYERTARPLLDNILDGFNATIFAYGATGCGKTHTISGTMQDPGLIYLTLKELFERMDHLRDEKIFDLRLSYLEIYNETIRDLLVSPTPNQAKPLNLREDADRRITVPGLTSLSPESLEEIIDIIMKGNANRTMSPTEANAASSRSHAVLQVTLIQKPRTAGINEDHTLATLSIIDLAGSERATATKLRGSRLFEGANINKSLLALGNCINALCDPHRRAHVPYRDSKLTRLLKFSLGGNCRTVMIVCVSPSSVHYEETHNTLKYANRAKNIKTEVLRNMISVDRHVSQYVKAIVELREQISELENRLAQIDLSSQSNGSDQDAVTQSFAHESKLAEARNLLRMTFEETLPLQNDTINKVEKVKHFDDSIRVLKYWLSCYERILPNSADERVFLVRSKLESLLTRRAEIIADIDPELVYQKFQRSVSHIINTYKQEGATMYADVLQDEVDLLKSIIENQVLDAQNKVDEFTPVLESLLRSSFKASSLLKEGGMQELFSILEKWLLGIGLGEKPNISVLSESYKLNSTSDDSRTINRDRVHSFPTQPLLNNNLPRMFFVKSPKKPVVFSKRSPKKRVRFDDSMSTSDSGASAYNSPIQTSKLKNMNFFNTMHMPSTPAHKRPENKNQIDVEINLTSPVSPMLEDKPEPGLLIKSPLEKKQEVNSESTQLDQLLAEDSSTDDVSLPHLDTIDLDGSPVPKVPDLNFSRANMDSPTFILNNEAIHNFDFSKPKTRQSLSSLTTLHLSNPANIIRKSLSMAENEEEKAT
binding: binds weakly
